Measurements published in PMC12675575, “A BRET biosensor for measuring uncompetitive engagement of PRMT5 complexes in cells” (Nature Communications, 2025).
Several values for one entry are separate records, joined by “and”; a condition that tells them apart may be missing. Equal values may be shown once. Further values from the same series stand in other lists.

By UniProt entry, the sequences of proteins in these tests, tags left out.
UniProt O14744, whole entry: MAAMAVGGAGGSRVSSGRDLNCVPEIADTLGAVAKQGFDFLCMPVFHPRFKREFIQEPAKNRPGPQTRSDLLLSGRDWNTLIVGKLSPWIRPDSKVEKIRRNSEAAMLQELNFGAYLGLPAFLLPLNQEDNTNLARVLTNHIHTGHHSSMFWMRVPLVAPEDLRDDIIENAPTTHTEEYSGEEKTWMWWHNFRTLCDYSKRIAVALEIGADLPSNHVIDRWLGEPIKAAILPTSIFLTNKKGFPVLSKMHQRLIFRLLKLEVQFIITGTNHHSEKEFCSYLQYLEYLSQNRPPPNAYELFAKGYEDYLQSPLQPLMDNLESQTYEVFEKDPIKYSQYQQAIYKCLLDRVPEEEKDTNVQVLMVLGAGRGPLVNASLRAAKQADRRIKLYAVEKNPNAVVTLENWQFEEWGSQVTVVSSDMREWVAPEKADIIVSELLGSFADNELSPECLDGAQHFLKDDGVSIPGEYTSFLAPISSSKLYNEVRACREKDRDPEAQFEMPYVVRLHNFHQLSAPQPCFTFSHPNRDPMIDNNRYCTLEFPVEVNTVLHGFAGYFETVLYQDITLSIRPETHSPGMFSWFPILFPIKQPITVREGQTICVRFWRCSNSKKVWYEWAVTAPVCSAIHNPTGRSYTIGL

Target: T1, NLuc-PRMT5 co-expressed with WDR77 in HCT116 MTAP wild-type cells (Homo sapiens, UniProt O14744)
T1 construct: Horizon Discovery (cells) #PAR-034 and #R02-033 (cells); host or cells: HCT116 MTAP wild-type / MTAP-/-
Experiment: Live-cell NanoBRET target engagement in HCT116 MTAP wild-type cells (NLuc-PRMT5 + WDR77)
Format: cell-based
Details: Fig 5A
Method: HEK293 cells (ATCC) were cultured in DMEM (Thermo Fisher) + 10% (v/v) FBS (Seredigm), and HCT116 cells (Horizon Discovery, #PAR-034 and #R02-033) were cultured in McCoy’s 5A (Thermo Fisher) + 10% FBS, with incubation in a humidified, 37 °C/5% CO2 incubator. Cells were split 1–3 days prior to performing experiments and used at roughly 80% confluency. […] Cells were transfected according to the manufacturer’s protocol using FuGENE HD (Promega). NanoLuc fusion DNA was diluted into Transfection Carrier DNA (Promega) in Opti-MEM at a ratio of 1:9 (mass/mass), and FuGENE HD was added at a ratio of 1:3 (μg DNA:μL lipid). […] Formed complexes were combined with cells resuspended to a density of 2 × 10^5 cells/mL in Opti-MEM + 1% FBS at a ratio of 1:20 (vol:vol). […] Cells were seeded at a density of 2 × 10^5 cells/mL in Opti-MEM + 1% FBS in 100 μL (96-well). The BRET probe CBH-002 was prepared first as a 100× stock in 100% DMSO (Sigma) and then diluted to a 20× stock in NanoBRET Tracer Dilution buffer (Promega). Test compounds were prepared as 1000× stocks in 100% DMSO and diluted to 10× stocks in Opti-MEM to prepare working stocks. […] NanoBRET Complete 3x Substrate was prepared by combining Nano-Glo Substrate and Extracellular NanoLuc Inhibitor in Opti-MEM, according to the manufacturer’s protocol (Promega).
EC50 values were obtained by fitting the BRET probe and compound affinity curves to a sigmoidal four-parameter fit model in Graphpad Prism:1 Y=Ymin+Ymax−Ymin/1+10^LogEC50−Xh where h is the Hill Slope.
When normalized BRET was used, mBRET values were normalized using2 NormalizedBRET%=(Y−BRETmin)/BRETmax−BRETmin where y = mBRET in the presence of test compound and BRET probe, BRETmin = mBRET at the highest concentration (saturating) of test compound and BRET probe, and BRETmax = mBRET in the presence of vehicle (DMSO) and BRET probe.
Normalized concentration-response curves showing full competition were fit using a 2-parameter model:3 Y=100/1+10^LogEC50−Xh […]

## O=C(CCc1ccc2n1[B-](F)(F)[N+]1=C(c3ccc[nH]3)C=CC1=C2)NCCCCC(=O)N1CCC(Nc2cc(C(=O)NC[C@H](O)CN3CCc4ccccc4C3)ncn2)CC1 [CBH-002]
Log([CBH-002]) in uM -1.81
  BRET, CBH-002 + DMSO: 445.3 and 435.06
Log([CBH-002]) in uM -2.11
  BRET, CBH-002 + DMSO: 234 and 269.12 and 249.34
Log([CBH-002]) in uM -2.41
  BRET, CBH-002 + DMSO: 130 and 134.31 and 128.17
